{"source": "PubChem BioAssay AID1259405, NCATS, 2018", "screen": "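Knock-downs that lift recombinant protein yield in hamster ovary cells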 (primary screen)", "cell system": "Chinese hamster CHO-K1 ovary cells with stable secreted eGFP expression", "reagent": "single siRNA against mouse genes, 0.8 pmol siRNA per well (2 µl of 400 nM stock)", "time to read-out": "3 days", "measurement": "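Per-well intracellular GFP measured by laser scanning cytometry, plus viability from ATP luminescence, each relative to plate median of non-targeting control wells, in %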", "direction": "GFP, % of control: higher = more GFP per well, higher productivity; viability (ATP), % of control: higher = more viable cells (more ATP)", "call rule": "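a knock-down is called active if GFP reaches 120% or more of non-targeting control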", "note": "The whole screen tested about 50,000 reagents; shown is a part drawn at random. Over the whole deposit, about 4,000 (8%) were called active. 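Mouse siRNA library applied to hamster cells; one well for each siRNA.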 A number with no mark means an inactive call."}
{"gene knocked down":"Ppp1r16b (GeneID 228852)","PubChem SID":"SID363575211","GFP, % of control":98.8,"viability (ATP), % of control":87.2}
{"gene knocked down":"Ppp1r16b (GeneID 228852)","PubChem SID":"SID363580843","GFP, % of control":60.4,"viability (ATP), % of control":36.3}
{"gene knocked down":"Ppp1r16b (GeneID 228852)","PubChem SID":"SID363582955","GFP, % of control":104,"viability (ATP), % of control":79}
{"gene knocked down":"Tpgs2 (GeneID 66648)","PubChem SID":"SID363552164","GFP, % of control":107,"viability (ATP), % of control":66.2}
{"gene knocked down":"Tpgs2 (GeneID 66648)","PubChem SID":"SID363585300","GFP, % of control":74.3,"viability (ATP), % of control":76.3}
{"gene knocked down":"Tpgs2 (GeneID 66648)","PubChem SID":"SID363585651","GFP, % of control":71.7,"viability (ATP), % of control":80.5}
{"gene knocked down":"Miso1 (GeneID 329659)","PubChem SID":"SID363539767","GFP, % of control":52.3,"viability (ATP), % of control":78.8}
{"gene knocked down":"Miso1 (GeneID 329659)","PubChem SID":"SID363561068","GFP, % of control":55.7,"viability (ATP), % of control":66.9}
{"gene knocked down":"Miso1 (GeneID 329659)","PubChem SID":"SID363565158","GFP, % of control":91.9,"viability (ATP), % of control":95.9}
{"gene knocked down":"Tmem62 (GeneID 96957)","PubChem SID":"SID363545523","GFP, % of control":43.7,"viability (ATP), % of control":41.1}
{"gene knocked down":"Tmem62 (GeneID 96957)","PubChem SID":"SID363549036","GFP, % of control":73.5,"viability (ATP), % of control":88.6}
{"gene knocked down":"Tmem62 (GeneID 96957)","PubChem SID":"SID363562842","GFP, % of control":38.7,"viability (ATP), % of control":29.8}
{"gene knocked down":"Slc16a7 (GeneID 20503)","PubChem SID":"SID363574688","GFP, % of control":71.2,"viability (ATP), % of control":73.1}
{"gene knocked down":"Slc16a7 (GeneID 20503)","PubChem SID":"SID363575744","GFP, % of control":84.4,"viability (ATP), % of control":86.9}
{"gene knocked down":"Slc16a7 (GeneID 20503)","PubChem SID":"SID363580320","GFP, % of control":98.4,"viability (ATP), % of control":85.4}
{"gene knocked down":"Smc2 (GeneID 14211)","PubChem SID":"SID363568993","GFP, % of control":49.3,"viability (ATP), % of control":73.6}
{"gene knocked down":"Smc2 (GeneID 14211)","PubChem SID":"SID363583425","GFP, % of control":108,"viability (ATP), % of control":100}
{"gene knocked down":"Tmc2 (GeneID 192140)","PubChem SID":"SID363547782","GFP, % of control":41.3,"viability (ATP), % of control":62.6}
{"gene knocked down":"Tmc2 (GeneID 192140)","PubChem SID":"SID363558551","GFP, % of control":89,"viability (ATP), % of control":82.5}
{"gene knocked down":"Tmc2 (GeneID 192140)","PubChem SID":"SID363560309","GFP, % of control":75.3,"viability (ATP), % of control":103}
{"gene knocked down":"Nr6a1 (GeneID 14536)","PubChem SID":"SID363544580","GFP, % of control":67,"viability (ATP), % of control":40.8}
{"gene knocked down":"Nr6a1 (GeneID 14536)","PubChem SID":"SID363550908","GFP, % of control":85.3,"viability (ATP), % of control":88.8}
{"gene knocked down":"Nr6a1 (GeneID 14536)","PubChem SID":"SID363557457","GFP, % of control":56.3,"viability (ATP), % of control":24.1}
{"gene knocked down":"Vps33a (GeneID 77573)","PubChem SID":"SID363547779","GFP, % of control":52.9,"viability (ATP), % of control":66.7}
{"gene knocked down":"Vps33a (GeneID 77573)","PubChem SID":"SID363558548","GFP, % of control":34.4,"viability (ATP), % of control":60.9}
{"gene knocked down":"Vps33a (GeneID 77573)","PubChem SID":"SID363560306","GFP, % of control":"134 (active)","viability (ATP), % of control":96.7}
{"gene knocked down":"Myct1 (GeneID 68632)","PubChem SID":"SID363562371","GFP, % of control":92.2,"viability (ATP), % of control":91}
{"gene knocked down":"Myct1 (GeneID 68632)","PubChem SID":"SID363567509","GFP, % of control":63,"viability (ATP), % of control":83.4}
{"gene knocked down":"Myct1 (GeneID 68632)","PubChem SID":"SID363584866","GFP, % of control":56.3,"viability (ATP), % of control":64.9}

Called active, of those listed so far:
{"gene knocked down":"Vps33a (GeneID 77573)","PubChem SID":"SID363560306","GFP, % of control":"134 (active)","viability (ATP), % of control":96.7}
